Assay results as given in the supplement of paper PMC8728848.
This is one part of the list.

Assays:
Test in all cases: glycan array binding signal (z-score within array); higher = stronger binding
Settings in all cases: glycan notation: IUPAC condensed, linker removed
[1] = target: Fuc(a1-2)Gal
Summary of the method: (§1)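 Glycan array data were curated from 3228 arrays in the Consortium for Functional Glycomics database and kept only where the protein sequence was available. Glycan names were converted to IUPAC-condensed notation, and columns mapping to the same glycan were averaged. The binding signal is a within-array Z-score, averaged across arrays of the same protein sequence at different concentrations or buffers and across linkers. Negative Z-scores can be read as non-binding.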

[2] = target: Fuc(a1-2)Gal(b1-3)GalNAc
Summary of the method: as §1

[3] = target: Fuc(a1-2)Gal(b1-3)GalNAc(b1-3)Gal
Summary of the method: as §1

[4] = target: Fuc(a1-2)Gal(b1-3)GalNAc(b1-3)Gal(a1-4)Gal(b1-4)Glc
Summary of the method: as §1

[5] = target: Fuc(a1-2)Gal(b1-3)GalNAc(b1-4)[Neu5Ac(a2-3)]Gal(b1-4)Glc
Summary of the method: as §1

[6] = target: Fuc(a1-2)Gal(b1-3)GlcNAc
Summary of the method: as §1

[7] = target: Fuc(a1-2)Gal(b1-3)GlcNAc(b1-3)Gal(b1-4)Glc
Summary of the method: as §1

[8] = target: Fuc(a1-2)Gal(b1-3)[Fuc(a1-4)]GlcNAc
Summary of the method: as §1

[9] = target: Fuc(a1-2)Gal(b1-4)Glc
Summary of the method: as §1

[10] = target: Fuc(a1-2)Gal(b1-4)Glc6S
Summary of the method: as §1

[11] = target: Fuc(a1-2)Gal(b1-4)GlcNAc
Summary of the method: as §1

[12] = target: Fuc(a1-2)Gal(b1-4)GlcNAc(b1-2)Man(a1-3)[Fuc(a1-2)Gal(b1-4)GlcNAc(b1-2)Man(a1-6)]Man(b1-4)GlcNAc(b1-4)GlcNAc
Summary of the method: as §1

[13] = target: Fuc(a1-2)Gal(b1-4)GlcNAc(b1-2)Man(a1-6)[Gal(b1-4)GlcNAc(b1-2)Man(a1-3)]Man(b1-4)GlcNAc(b1-4)GlcNAc
Summary of the method: as §1

[14] = target: Fuc(a1-2)Gal(b1-4)GlcNAc(b1-3)Gal(b1-4)GlcNAc
Summary of the method: as §1

[15] = target: Fuc(a1-2)Gal(b1-4)GlcNAc(b1-3)Gal(b1-4)GlcNAc(b1-3)Gal(b1-4)GlcNAc
Summary of the method: as §1

[16] = target: Fuc(a1-2)Gal(b1-4)GlcNAc6S
Summary of the method: as §1

[17] = target: Fuc(a1-2)Gal(b1-4)[Fuc(a1-3)]GlcNAc
Summary of the method: as §1

[18] = target: Fuc(a1-2)Gal(b1-4)[Fuc(a1-3)]GlcNAc(b1-3)Gal(b1-4)[Fuc(a1-3)]GlcNAc
Summary of the method: as §1

[19] = target: Fuc(a1-2)Gal(b1-4)[Fuc(a1-3)]GlcNAc(b1-3)Gal(b1-4)[Fuc(a1-3)]GlcNAc(b1-3)Gal(b1-4)[Fuc(a1-3)]GlcNAc
Summary of the method: as §1

[20] = target: Fuc(a1-2)Gal6S(b1-4)Glc
Summary of the method: as §1

[21] = target: Fuc(a1-2)Gal6S(b1-4)Glc6S
Summary of the method: as §1

[22] = target: Fuc(a1-2)Gal6S(b1-4)GlcNAc
Summary of the method: as §1

[23] = target: Fuc(a1-2)[Gal(a1-3)]Gal
Summary of the method: as §1

[24] = target: Fuc(a1-2)[Gal(a1-3)]Gal(b1-3)GlcNAc
Summary of the method: as §1

[25] = target: Fuc(a1-2)[Gal(a1-3)]Gal(b1-4)Glc
Summary of the method: as §1

[26] = target: Fuc(a1-2)[Gal(a1-3)]Gal(b1-4)GlcNAc
Summary of the method: as §1

[27] = target: Fuc(a1-2)[Gal(a1-3)]Gal(b1-4)[Fuc(a1-3)]GlcNAc
Summary of the method: as §1

[28] = target: Fuc(a1-2)[Gal(a1-4)]Gal(b1-4)GlcNAc
Summary of the method: as §1

[29] = target: Fuc(a1-2)[GalNAc(a1-3)]Gal
Summary of the method: as §1

[30] = target: Fuc(a1-2)[GalNAc(a1-3)]Gal(b1-3)GlcNAc
Summary of the method: as §1

B1: TbCVNHOa (Tuber borchii), Q5MK11 (protein)
chain: MSYADSSRNAVLTNGGRTLRAECRNADGNWVTSELDLDTCIGNPNGFLGWGMQNFSHSSEDIKLEEGGRKLTCRPKTVDGGFRERQGIDLNRIQNVNGRLVFQ
- glycan array binding signal (z-score) [1]: -0.164
- glycan array binding signal (z-score) [2]: 0.369
- glycan array binding signal (z-score) [3]: -0.109
- glycan array binding signal (z-score) [4]: 0.222
- glycan array binding signal (z-score) [5]: -0.205
- glycan array binding signal (z-score) [6]: 0.083
- glycan array binding signal (z-score) [7]: 1.94
- glycan array binding signal (z-score) [8]: -0.174
- glycan array binding signal (z-score) [9]: -0.265
- glycan array binding signal (z-score) [10]: -0.357
- glycan array binding signal (z-score) [11]: -0.042
- glycan array binding signal (z-score) [12]: -0.564
- glycan array binding signal (z-score) [13]: -0.642
- glycan array binding signal (z-score) [14]: -0.226
- glycan array binding signal (z-score) [15]: -0.116
- glycan array binding signal (z-score) [16]: 0.067
- glycan array binding signal (z-score) [17]: -0.224
- glycan array binding signal (z-score) [18]: 0.224
- glycan array binding signal (z-score) [19]: -0.082
- glycan array binding signal (z-score) [20]: 0.174
- glycan array binding signal (z-score) [21]: 0.121
- glycan array binding signal (z-score) [22]: 0.327
- glycan array binding signal (z-score) [23]: -0.087
- glycan array binding signal (z-score) [24]: -0.383
- glycan array binding signal (z-score) [25]: -0.167
- glycan array binding signal (z-score) [26]: -0.499
- glycan array binding signal (z-score) [27]: -0.023
- glycan array binding signal (z-score) [28]: 0.988
- glycan array binding signal (z-score) [29]: 0.21
- glycan array binding signal (z-score) [30]: 0.743
